At least one compound was matched to its structure with a doubt left.
Test system: Ba/F3 cells expressing EGFR-L858R-T790M-C797S
Assay: Ba/F3 cell viability (CellTiter-Glo), EGFR-L858R-T790M-C797S
Assay type: cell-based
Settings: with Cetuximab

SMILES: COc1cc(N2CCC(N3CCN(C)CC3)CC2)ccc1Nc1ncc(Cl)c(Nc2ccccc2P(C)(C)=O)n1 [Brigatinib]
- potency against L858R triple mutant in the presence of Cetuximab: not observed

From US11123330B2, “Methods and compositions for inhibiting mutant EGFR signaling” (The Governing Council of the University of Toronto, priority 2017, dated 2021)
